{"source": "PubChem BioAssay AID192", "about": "(DTP/NCI, 2004)", "system": "BDF1 mice, B16 melanoma ip, median survival T/C", "assay": "NCI In Vivo Anticancer Drug Screen. Data for tumor model B16 Melanoma (intraperitoneal) in B6D2F1 (BDF1) mice", "conditions": "T/C endpoint: median survival time, higher T/C = longer survival", "how_it_was_run": "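Tumor-bearing mice received test compound or vehicle. Survival or tumor size was then measured in both groups. The treated-group figure was divided by the control-group figure.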", "key": {"[1]": {"conditions": "dose: 0.12 mg/kg/injection, schedule: Q01DX009 (ip), vehicle: saline"}, "[2]": {"conditions": "dose: 1.0 mg/kg/injection, schedule: Q01DX009 (ip), vehicle: saline"}, "[3]": {"conditions": "dose: 4.0 mg/kg/injection, schedule: Q01DX009 (ip), vehicle: saline"}, "[4]": {"conditions": "dose: 400.0 mg/kg/injection, schedule: Q01DX009 (ip), vehicle: saline with Tween-80"}, "[5]": {"conditions": "dose: 100.0 mg/kg/injection, schedule: Q01DX009 (ip), vehicle: saline"}, "[6]": {"conditions": "dose: 200.0 mg/kg/injection, schedule: Q01DX009 (ip), vehicle: saline with Tween-80"}, "[7]": {"conditions": "dose: 100.0 mg/kg/injection, schedule: Q01DX009 (ip), vehicle: Klucel (hydroxypropylcellulose) (HPC)"}, "[8]": {"conditions": "dose: 32.0 mg/kg/injection, schedule: Q01DX009 (ip), vehicle: saline"}}, "note": "The list is a part of this screen's results and no random one: it is rich in T/C values a quarter to a half above the control, in often repeated tests (any T/C) and in doses without a T/C. Other doses and runs of a compound stand elsewhere. T/C gives the treated animals as a percentage of the vehicle group. Some entries give survivors of the animals treated and no T/C: the source holds a T/C of zero for them, seemingly a mark for toxic or unscored doses. Some survivor counts are full or nearly so, which does not show that the dose was tolerated: survival well below the control is almost never listed, so the zero probably covers shortened survival too. Counts of survivors are from the toxicity check (mostly the fifth day) where no day follows; animals may have died later. Schedules are NCI's codes, taken here to give the interval after Q, in days (D) or hours (H), and the number of doses after X. Some entries were tested several times; the results are listed from low to high. For survival time, this PubChem deposit counts one and a half times the control or more as active, and values a quarter to a half above the control carry no call in these data; other NCI protocols may use other cut-offs.", "data": [{"molecule": "CCC1CC(O)c2c(O)c3c(c(O)c2C1O)C(=O)c1cccc(O)c1C3=O", "note": "(stereo not drawn) (tested in a mixture with another compound)", "values": [{"measurement": "survivor count", "setting": "dose: 0.06 mg/kg/injection, schedule: Q01DX009 (ip), vehicle: saline", "value": "10 of 10"}, {"measurement": "survivor count", "setting": "[1]", "value": "10 of 10"}, {"measurement": "survivor count", "setting": "dose: 0.25 mg/kg/injection, schedule: Q01DX009 (ip), vehicle: saline", "value": "9 of 10 and 10 of 10"}, {"measurement": "survivor count", "setting": "dose: 0.25 mg/kg/injection, schedule: Q04DX003 (ip), vehicle: saline", "value": "8 of 10 and 10 of 10"}, {"measurement": "survivor count", "setting": "dose: 0.5 mg/kg/injection, schedule: Q01DX009 (ip), vehicle: saline", "value": "9 of 10"}, {"measurement": "survivor count", "setting": "dose: 0.5 mg/kg/injection, schedule: Q04DX003 (ip), vehicle: saline", "value": "10 of 10"}, {"measurement": "survivor count", "setting": "[2]", "value": "7 of 10"}, {"measurement": "survivor count", "setting": "dose: 1.0 mg/kg/injection, schedule: Q04DX003 (ip), vehicle: saline", "value": "8 of 10 and 10 of 10"}, {"measurement": "survivor count", "setting": "dose: 2.0 mg/kg/injection, schedule: Q01DX009 (ip), vehicle: saline", "value": "7 of 10"}, {"measurement": "survivor count", "setting": "dose: 2.0 mg/kg/injection, schedule: Q04DX003 (ip), vehicle: saline", "value": "6 of 10"}, {"measurement": "survivor count", "setting": "[3]", "value": "5 of 10"}, {"measurement": "survivor count", "setting": "dose: 4.0 mg/kg/injection, schedule: Q04DX003 (ip), vehicle: saline", "value": "1 of 10"}, {"measurement": "T/C", "setting": "dose: 7.0 micrograms/kg/injection, schedule: Q01DX009 (ip), vehicle: saline", "value": "127 % of control"}, {"measurement": "T/C", "setting": "dose: 31.0 micrograms/kg/injection, schedule: Q01DX009 (ip), vehicle: saline", "value": "125 % of control"}, {"measurement": "T/C", "setting": "dose: 62.0 micrograms/kg/injection, schedule: Q01DX009 (ip), vehicle: saline", "value": "130 % of control"}, {"measurement": "survivor count", "setting": "dose: 125.0 micrograms/kg/injection, schedule: Q01DX009 (ip), vehicle: saline", "value": "10 of 10"}]}, {"molecule": "CCCCCCOCCN1CCN(CCCN2c3ccccc3Sc3ccc(C(F)(F)F)cc32)CC1", "values": [{"measurement": "survivor count", "setting": "dose: 4.0 mg/kg/injection, schedule: Q01DX009 (ip), vehicle: saline with Tween-80", "value": "8 of 10"}]}, {"molecule": "O=C(O)CCCSc1nc2ccccc2s1", "values": [{"measurement": "survivor count", "setting": "[4]", "value": "6 of 10"}]}, {"molecule": "O=S(=O)(/N=C1C=C/C(=N/S(=O)(=O)c2ccccc2)C2C3C=CC(C3)C/12)c1ccccc1", "note": "(stereo not drawn)", "values": [{"measurement": "survivor count", "setting": "dose: 400.0 mg/kg/injection, schedule: Q04DX003 (ip), vehicle: Klucel (hydroxypropylcellulose) (HPC)", "value": "9 of 10"}]}, {"molecule": "O=CN(SSN(C=O)C1CCCCC1)C1CCCCC1", "values": [{"measurement": "survivor count", "setting": "[4]", "value": "10 of 10"}]}, {"molecule": "COc1ccc2cc1Oc1ccc(cc1)C[C@H]1c3cc(c(OC)cc3CCN1C)Oc1c(OC)c(OC)cc3c1[C@H](C2)N(C)CC3", "values": [{"measurement": "survivor count", "setting": "dose: 50.0 mg/kg/injection, schedule: Q01DX009 (ip), vehicle: saline with Tween-80", "value": "6 of 6"}, {"measurement": "survivor count", "setting": "dose: 100.0 mg/kg/injection, schedule: Q01DX009 (ip), vehicle: other", "value": "9 of 10"}, {"measurement": "survivor count", "setting": "[5]", "value": "2 of 6"}, {"measurement": "survivor count", "setting": "dose: 200.0 mg/kg/injection, schedule: Q01DX009 (ip), vehicle: other", "value": "0 of 10"}, {"measurement": "survivor count", "setting": "[6]", "value": "6 of 6"}, {"measurement": "survivor count", "setting": "dose: 200.0 mg/kg/injection, schedule: Q04DX003 (ip), vehicle: saline", "value": "1 of 8"}, {"measurement": "survivor count", "setting": "[4]", "value": "6 of 6"}]}, {"molecule": "Cc1cccc(NC(=O)CCl)c1", "values": [{"measurement": "survivor count", "setting": "dose: 200.0 mg/kg/injection, schedule: Q01DX009 (ip), vehicle: carboxymethylcellulose (CMC)", "value": "6 of 10"}]}, {"molecule": "O=C(NNCc1ccccc1)c1ccccn1", "values": [{"measurement": "survivor count", "setting": "dose: 6.25 mg/kg/injection, schedule: Q01DX009 (ip), vehicle: Klucel (hydroxypropylcellulose) (HPC)", "value": "10 of 10"}, {"measurement": "survivor count", "setting": "dose: 12.5 mg/kg/injection, schedule: Q01DX009 (ip), vehicle: Klucel (hydroxypropylcellulose) (HPC)", "value": "10 of 10"}, {"measurement": "survivor count", "setting": "dose: 25.0 mg/kg/injection, schedule: Q01DX009 (ip), vehicle: Klucel (hydroxypropylcellulose) (HPC)", "value": "10 of 10"}, {"measurement": "survivor count", "setting": "[7]", "value": "8 of 10 and 10 of 10"}]}, {"molecule": "C=C1C(=O)OCC1(C(=O)OCC)C(=O)OCC", "values": [{"measurement": "survivor count", "setting": "dose: 32.0 mg/kg/injection, schedule: Q01DX009 (ip), vehicle: saline with Tween-80", "value": "3 of 6"}, {"measurement": "survivor count", "setting": "dose: 64.0 mg/kg/injection, schedule: Q01DX009 (ip), vehicle: saline with Tween-80", "value": "1 of 6"}]}, {"molecule": "COc1ccc(N2CSC(=S)N(c3ccc(OC)cc3)C2)cc1", "values": [{"measurement": "T/C", "setting": "dose: 12.5 mg/kg/injection, schedule: Q01DX009 (ip), vehicle: saline with Tween-80", "value": "130 % of control"}, {"measurement": "survivor count", "setting": "[7]", "value": "10 of 10"}, {"measurement": "survivor count", "setting": "dose: 200.0 mg/kg/injection, schedule: Q01DX009 (ip), vehicle: Klucel (hydroxypropylcellulose) (HPC)", "value": "10 of 10"}, {"measurement": "survivor count", "setting": "dose: 400.0 mg/kg/injection, schedule: Q01DX009 (ip), vehicle: Klucel (hydroxypropylcellulose) (HPC)", "value": "10 of 10"}]}, {"molecule": "CC(C)=CC1C(C(=O)OCc2ccc(C)cc2C)C1(C)C", "note": "(stereo not drawn)", "values": [{"measurement": "survivor count", "setting": "dose: 100.0 mg/kg/injection, schedule: Q01DX009 (ip), vehicle: saline with Tween-80", "value": "10 of 10"}, {"measurement": "survivor count", "setting": "[6]", "value": "10 of 10"}, {"measurement": "survivor count", "setting": "[4]", "value": "10 of 10"}]}, {"molecule": "N=C(N)SCc1c2ccccc2c(CSC(=N)N)c2ccccc12", "values": [{"measurement": "survivor count", "setting": "dose: 50.0 mg/kg/injection, schedule: Q01DX009 (ip), vehicle: saline", "value": "6 of 6"}, {"measurement": "survivor count", "setting": "[5]", "value": "6 of 6"}, {"measurement": "survivor count", "setting": "dose: 200.0 mg/kg/injection, schedule: Q01DX009 (ip), vehicle: saline", "value": "6 of 6"}]}, {"molecule": "CN(C)CCCN1c2ccccc2Sc2ccc(C(F)(F)F)cc21", "values": [{"measurement": "survivor count", "setting": "[1]", "value": "10 of 10"}, {"measurement": "survivor count", "setting": "[2]", "value": "10 of 10"}, {"measurement": "survivor count", "setting": "[3]", "value": "9 of 10"}, {"measurement": "survivor count", "setting": "dose: 16.0 mg/kg/injection, schedule: Q01DX009 (ip), vehicle: saline", "value": "6 of 10"}, {"measurement": "survivor count", "setting": "[8]", "value": "0 of 10"}]}, {"molecule": "C=CCNC(=S)Nc1cc(Cl)ccc1C", "values": [{"measurement": "survivor count", "setting": "dose: 200.0 mg/kg/injection, schedule: Q04DX003 (ip), vehicle: Klucel (hydroxypropylcellulose) (HPC)", "value": "8 of 10"}]}, {"molecule": "CCc1ccc2c(c1)N(CC(C)CN(C)C)c1ccccc1S2", "note": "(stereo not drawn)", "values": [{"measurement": "survivor count", "setting": "dose: 0.78 mg/kg/injection, schedule: Q01DX009 (ip), vehicle: saline", "value": "9 of 10 and 10 of 10"}, {"measurement": "survivor count", "setting": "dose: 1.56 mg/kg/injection, schedule: Q01DX009 (ip), vehicle: saline", "value": "10 of 10"}, {"measurement": "survivor count", "setting": "dose: 3.12 mg/kg/injection, schedule: Q01DX009 (ip), vehicle: saline", "value": "10 of 10"}, {"measurement": "survivor count", "setting": "dose: 6.25 mg/kg/injection, schedule: Q01DX009 (ip), vehicle: saline", "value": "6 of 10, 7 of 10, 10 of 10"}, {"measurement": "survivor count", "setting": "dose: 12.5 mg/kg/injection, schedule: Q01DX009 (ip), vehicle: saline", "value": "1 of 10, 2 of 10, 10 of 10"}]}, {"molecule": "CC1OC(O[C@H]2/C=C/C=C/C=C/C=C/C=C/C=C/C=C/[C@H](C)[C@@H](O)[C@@H](C)[C@H](C)OC(=O)C[C@H](O)C[C@H](O)CC[C@@H](O)[C@H](O)C[C@H](O)C[C@]3(O)C[C@H](O)[C@@H](C(=O)O)[C@H](C2)O3)C(O)C(N)C1O", "note": "(stereo partly drawn)", "values": [{"measurement": "survivor count", "setting": "[8]", "value": "4 of 10 and 5 of 10"}, {"measurement": "survivor count", "setting": "dose: 64.0 mg/kg/injection, schedule: Q01DX009 (ip), vehicle: saline", "value": "0 of 10 and 1 of 10"}, {"measurement": "survivor count", "setting": "dose: 128.0 mg/kg/injection, schedule: Q01DX009 (ip), vehicle: saline", "value": "0 of 10"}]}]}
